Assay results

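A cell-based FRET test of anthrax lethal toxin entry, tracked through the 460 nm emission signal; the cell line is not named here. Each compound was tested as a concentration series from about 0.0005 to 40 µM. The number is the fitted AC50 of the 460 nm signal alone; lower values mean a more potent effect. A falling signal goes with compounds filed as inhibitors or cytotoxic, a rising one with activators or fluorescent compounds (inferred from the filed classes).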

Values are in µM. Common to all entries: measured here: 460 nm channel. This is a side read-out of the assay, for part of the compounds, not drawn at random. A potency from a partial, single-point or poor curve is only a rough figure. The first word of each remark tells which way the curve ran; it can be opposite to the aim of the assay.

Compound	AC50 (µM)	curve
COc1cc(-c2c(C#N)c(N)nc(SCc3ccncc3)c2C#N)cc(OC)c1OC	6.31	rising, partial curve
COc1cccc(Cn2c(=O)cnc3cnc(N4CCOCC4)nc32)c1	25.12	rising, partial curve
Cc1[nH]nc(-c2ccc(O)c(C)c2O)c1-c1cnn(-c2ccccc2)c1	15.85	falling, partial curve
COC(=O)CNS(=O)(=O)c1ccc(Cc2ccc(S(=O)(=O)NCC(=O)OC)cc2)cc1	10	rising, single point
O=C(NC1CCCC1)c1cccnc1N1CCCCCC1	0.07943	falling, full curve, poor fit
CCOC(=O)N1CCN(C(=O)CSc2nnc(-c3ccc(C)c(C)c3)o2)CC1	6.31	rising, partial curve
COc1ccc(CNc2ncnc3ccc(-c4ccc(C(=O)N(C)C)cc4)cc23)c(OC)c1	10	rising, partial curve
CCOC(=O)Cn1c(=O)c2c(nc(N3CCCCC3)n2Cc2ccccc2)n(C)c1=O	0.007943	rising, full curve
Cc1nn(-c2ccccc2)c2sc(C(=O)N(CC(=O)NC(C)(C)C)Cc3ccco3)cc12	25.12	falling, single point
OB(O)c1cc2ccccc2s1	19.95	falling, single point
c1ccc2cc3c(cc2c1)-c1cccc2cccc-3c12	0.631	rising, full curve
c1ccc(Nc2n[nH]nc2-c2ccccc2)cc1	12.59	falling, partial curve
COC(=O)[C@@]1(Cc2ccc(F)cc2)[C@H]2c3cc(C(=O)N(C)C)n(Cc4nc5ccccc5[nH]4)c3C[C@H]2CN1C(=O)c1ccccc1	12.59	rising, partial curve
COc1ccccc1CNc1ncnc2ccc(-c3cccnc3)cc12	15.85	falling, partial curve
O=S(=O)(NCCc1csc(-c2cccnc2)n1)c1ccc2c(c1)OCCO2	3.162	falling, full curve, poor fit
Nc1cc(=O)[nH]c(SCCNS(=O)(=O)c2ccccc2)n1	0.01	falling, partial curve, poor fit
COc1ccc2[nH]c(=O)c(CN(C(=O)C3CCCO3)c3cccc(C)c3)cc2c1 (stereo not drawn)	15.85	falling, partial curve, poor fit
Cn1c(COc2ccccc2)nnc1SCC(=O)Nc1ccc(N2CCOCC2)c(Cl)c1	0.003162	falling, full curve, poor fit
COc1ccc(C2=NO[C@@H]3C(=O)N(C4CCCCC4)C(=O)[C@H]23)cc1OC	5.012	rising, partial curve
CCN1CC=C2C(C#N)=C(N)C(C#N)(C#N)C(c3cc(Cl)ccc3Cl)C2C1 (stereo not drawn)	10	rising, partial curve
c1ccc(-n2nnnc2SCc2cn3ccccc3n2)cc1	3.981	falling, partial curve
O=C(NCc1ccco1)c1cc2ccc(O)cc2oc1=O	10	rising, partial curve
CC1CCN(S(=O)(=O)c2ccc(NC(=O)c3cccs3)cc2)CC1	10	falling, partial curve
COCCCNC(=O)CCCC(=O)NCCCOC	12.59	rising, single point
Cc1ccc(-c2noc(CN3CCN(c4ccccc4F)CC3)n2)cc1	6.31	falling, partial curve
COC(=O)c1c(C)[nH]c(C(C)=O)c1C	0.02512	rising, full curve, poor fit
c1ccc2c(c1)c1cccc3ccc4cccc2c4c31	1.585	falling, full curve, poor fit
c1csc(CCNc2ncnc3sc4c(c23)CCC4)c1	10	falling, partial curve
CN1CCN(c2ncc3nc(-c4ccc(Cl)cc4)c(=O)n(C4CC4)c3n2)CC1	12.59	rising, partial curve
CCN1CCN(c2cc(C)c3cc(NC(=O)c4ccc(Br)o4)ccc3n2)CC1	10	falling, partial curve
O=S(=O)(c1cccc2c(I)cccc12)N1CCCNCC1	3.162	falling, full curve
CCC(=NCc1ccc2c(c1)OCO2)c1c(O)n(C)c(=O)n(C)c1=O	1.259	rising, full curve, poor fit
Cc1ccc2nc(SCC(=O)O)nc(C)c2c1	31.62	falling, single point
Cc1noc(C)c1-c1nc(NCc2ccccc2)c2ccccc2n1	10	falling, partial curve
CN1CCN(c2ncc3nc(CCc4ccccc4)c(=O)n(Cc4cccs4)c3n2)CC1	15.85	falling, single point
N#Cc1nc(Cc2cccc3ccccc23)oc1N1CCCCC1	10	rising, partial curve
CC(=O)c1cc2c(cc1NC(=O)c1ccc(-n3nc(C)cc3C)cc1)OCO2	5.012	rising, single point
N#Cc1nc(COc2ccc(Cl)cc2Cl)oc1N1CCN(c2ccccc2)CC1	10	falling, single point
CCOC(=O)[C@@H]1[C@@H]2c3ccccc3-c3ccccc3[C@H]2C[C@H]1O	1	falling, partial curve, poor fit
C[C@@]12CC[C@H]3[C@H](CC=C4C[C@@H](O)CC[C@@]43C)[C@@H]1CC[C@@H]2N(CCO)CCO	5.012	rising, single point
Cc1ccc2nc(NC(=O)C3CCN(S(=O)(=O)c4ccc5c(c4)oc(=O)n5C)CC3)sc2c1	0.1	falling, full curve
O=c1[nH]c2ccc(Cl)cc2c(-c2ccccc2)c1N1CCOCC1	19.95	rising, single point
CCC(=O)Nc1ccc(Cl)c(NC(=O)C(C)C)c1	0.01	falling, full curve, poor fit
CCN(CC)c1ccc2c(Cl)c(Br)c(=O)oc2c1	12.59	rising, partial curve
CCOC(=O)c1sc(=S)n(-c2ccccc2OC)c1N	0.003162	falling, full curve, poor fit
O=C(Nc1ccc(Oc2ccccc2)cc1)C1CCCN(c2ncccn2)C1 (stereo not drawn)	19.95	rising, single point
COc1ccc(-c2oc3ncnc(NCCN4CCOCC4)c3c2-c2ccc(OC)cc2)cc1	5.012	rising, single point
O=C(c1cc2nc(-c3ccccc3)cc(-c3ccccc3)n2n1)N1CCC2(CC1)OCCO2	1.259	rising, partial curve, poor fit
CCCCn1c(O)c(C(CC)=Nc2ccc(OCC)cc2)c(=O)[nH]c1=O	1.585	rising, partial curve
CCCCn1c(N2CCC(Cc3ccccc3)CC2)nc2c1c(=O)[nH]c(=O)n2C	12.59	falling, single point
c1ccc(Cc2nnc(-c3ccccc3)o2)cc1	7.943	falling, partial curve
CN1CCN(c2cc3c(c4c2[nH]c2ccccc24)C(=O)CC(C)(C)C3)CC1	10	falling, partial curve
Cc1ccc(-n2c3c(cc(C(=O)NCc4ccco4)c2=O)C(=O)CC(C)(C)C3)cc1	5.012	rising, single point
CCN(CC)CCCCn1c(-c2ccccc2)nc2c(Nc3ccccc3)nc(C)nc21	31.62	falling, single point
COc1cc(C2C(C#N)=C(N)Oc3cc(C)oc(=O)c32)cc2c1OCO2 (stereo not drawn)	0.1259	falling, single point
COc1ccc(C(C)(C)C)cc1NC(=O)Nc1ccc2c(c1)OCO2	15.85	falling, partial curve
CCc1cccc(NC2c3ccccc3C(=O)N2c2ccc(C)cn2)c1 (stereo not drawn)	12.59	falling, single point
CC1=C(\C=C/C(C)=C/C=C\C(C)=C\C(=O)O)C(C)(C)CCC1	31.62	falling, single point
NC(N)=NCCC[C@H](N)C(=O)O	12.59	falling, single point
Cc1cc(O)c(-c2n[nH]c3c2C(c2cccc(O)c2)N(Cc2cccnc2)C3=O)cc1Cl (stereo not drawn)	1.585	rising, full curve

The first 3 entries again:

- COc1cc(-c2c(C#N)c(N)nc(SCc3ccncc3)c2C#N)cc(OC)c1OC : AC50 6.31 µM (rising, partial curve)
- COc1cccc(Cn2c(=O)cnc3cnc(N4CCOCC4)nc32)c1 : AC50 25.12 µM (rising, partial curve)
- Cc1[nH]nc(-c2ccc(O)c(C)c2O)c1-c1cnn(-c2ccccc2)c1 : AC50 15.85 µM (falling, partial curve)

From PubChem BioAssay record AID912 (NCATS, 2007).